Data as given in publication PMC11164485.
These are yes or no findings as the source states them, for the method shown. In cells and extracts the contact can be indirect. Some binding calls cover weakened binding; strength is not graded here.

Protein sequences, listed by entry. Tags and fused reporters are not part of them.
UniProt P52631: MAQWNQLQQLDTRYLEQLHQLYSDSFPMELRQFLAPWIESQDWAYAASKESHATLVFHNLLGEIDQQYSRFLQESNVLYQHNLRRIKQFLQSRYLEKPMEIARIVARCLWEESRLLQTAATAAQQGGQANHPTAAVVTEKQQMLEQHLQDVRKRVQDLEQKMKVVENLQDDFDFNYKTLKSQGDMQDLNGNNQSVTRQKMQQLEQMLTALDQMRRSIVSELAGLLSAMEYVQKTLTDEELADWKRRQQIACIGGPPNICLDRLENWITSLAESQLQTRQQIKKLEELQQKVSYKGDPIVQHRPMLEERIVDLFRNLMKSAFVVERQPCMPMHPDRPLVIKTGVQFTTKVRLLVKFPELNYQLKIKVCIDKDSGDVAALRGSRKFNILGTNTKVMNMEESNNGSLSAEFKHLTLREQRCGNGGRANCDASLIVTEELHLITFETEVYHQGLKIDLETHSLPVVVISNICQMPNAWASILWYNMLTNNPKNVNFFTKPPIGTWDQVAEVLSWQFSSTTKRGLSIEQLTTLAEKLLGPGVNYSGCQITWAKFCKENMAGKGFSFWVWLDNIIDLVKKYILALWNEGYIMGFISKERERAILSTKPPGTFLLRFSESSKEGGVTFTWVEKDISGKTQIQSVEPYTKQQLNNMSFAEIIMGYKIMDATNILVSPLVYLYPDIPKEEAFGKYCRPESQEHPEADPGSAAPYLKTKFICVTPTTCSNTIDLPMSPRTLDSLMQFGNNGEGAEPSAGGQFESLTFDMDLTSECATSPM

Tests used:
[1] = target: p-STAT3 (rat (endogenous in rat primary cardiomyocytes)) (UniProt P52631); assay: co-IP; lysate of rat primary cardiomyocytes (IP lysis buffer) incubated with STAT3 antibody or p-STAT3 antibody at 4 C overnight, protein A/G beads 1 h at 4 C; IgG as negative control; APOC1 detected by western blot
[2] = target: STAT3 (rat (endogenous in rat primary cardiomyocytes)) (UniProt P52631); assay: as above

B1: APOC1 (protein, UniProt P19939 27-88)
chain: APDFSSAMESLPDKLKEFGNTLEDKARAAIEHIKQKEIMIKTRNWFSETLNKMKEKLKTTFA
[1]
  binding: binds
[2]
  binding: binds
